Assay: general procedure: Fmoc solid-phase peptide synthesis; Rink amide resin
Conditions: whole synthesis, scale of the general procedure 15 μmol; for final HPLC purity: RP-HPLC

Substance | final HPLC purity [%] | difficulty met
ADISTFASAINNAGRLRY-NH2 | >90 | Some crude peptides were partly insoluble
AGSDPNFLRF-NH2 | >95 | 
ALNRDSLVASLNNAERLRF-NH2 | >95 | Some crude peptides were partly insoluble
APKPKFIRF-NH2 | >95 | 
APLEGFEDMSGFLRTIDGIQKPRF-NH2 | >95 | Some crude peptides were partly insoluble
APLEPVYPGDNATPEQMAQYAADLRRYINMLTRPRY-NH2 | >95 | 
ASPSFIRF-NH2 | >95 | 
EASAFGDIIGELKGKGLGGRMRF-NH2 | >95 | Some crude peptides were partly insoluble
GLGPRPLAF-NH2 | >95 | 
GLGPRPLRF-NH2 | >95 | Some crude peptides were partly insoluble
KHEYLRF-NH2 | >95 | 
NPENDTPFGTMRF-NH2 | >95 | Some crude peptides were partly insoluble
RGPSGPLAF-NH2 | >95 | 
RGPSGPLRF-NH2 | >95 | Some crude peptides were partly insoluble
SEVPGVLRF-NH2 | >95 | Some crude peptides were partly insoluble
SRTHRHSMEIRTPDINPAWYASRGIRPVGRF-NH2 | >95 | 
TPDINPAWYASRGIRPVGRF-NH2 | >95 | 
TSGPLGNLAEELNGYSRKKGGFSFRF-NH2 | >95 | 

— paper PMC6751662 (Cell Communication and Signaling : CCS, 2019)
